PMC8546558
Results are given in words; binding and its absence hold for the method and conditions named. For some assays here: Binding seen in cells or lysates may run through a third protein. Some results given as binding are weak or reduced against the parent protein; the word gives no strength. Sequences can lack the tags named with a protein.

T1: NisCHis (6×His-tagged NisC) (Lactococcus lactis) (UniProt Q03202)
T1 sequence: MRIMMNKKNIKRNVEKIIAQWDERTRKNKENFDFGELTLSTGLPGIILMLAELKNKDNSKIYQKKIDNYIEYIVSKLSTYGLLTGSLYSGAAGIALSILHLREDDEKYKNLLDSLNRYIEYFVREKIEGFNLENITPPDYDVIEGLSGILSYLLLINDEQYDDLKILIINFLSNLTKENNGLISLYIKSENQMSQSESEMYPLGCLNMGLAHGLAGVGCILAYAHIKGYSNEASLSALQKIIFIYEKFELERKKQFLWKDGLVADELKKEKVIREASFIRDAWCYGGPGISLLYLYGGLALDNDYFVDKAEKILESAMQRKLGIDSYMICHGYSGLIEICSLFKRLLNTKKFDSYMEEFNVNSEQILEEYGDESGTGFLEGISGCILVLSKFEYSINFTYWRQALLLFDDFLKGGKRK

T2: NisT^H551AHis (mutation H551A introduced in NisTHis) (Lactococcus lactis) (UniProt Q03203)
T2 sequence: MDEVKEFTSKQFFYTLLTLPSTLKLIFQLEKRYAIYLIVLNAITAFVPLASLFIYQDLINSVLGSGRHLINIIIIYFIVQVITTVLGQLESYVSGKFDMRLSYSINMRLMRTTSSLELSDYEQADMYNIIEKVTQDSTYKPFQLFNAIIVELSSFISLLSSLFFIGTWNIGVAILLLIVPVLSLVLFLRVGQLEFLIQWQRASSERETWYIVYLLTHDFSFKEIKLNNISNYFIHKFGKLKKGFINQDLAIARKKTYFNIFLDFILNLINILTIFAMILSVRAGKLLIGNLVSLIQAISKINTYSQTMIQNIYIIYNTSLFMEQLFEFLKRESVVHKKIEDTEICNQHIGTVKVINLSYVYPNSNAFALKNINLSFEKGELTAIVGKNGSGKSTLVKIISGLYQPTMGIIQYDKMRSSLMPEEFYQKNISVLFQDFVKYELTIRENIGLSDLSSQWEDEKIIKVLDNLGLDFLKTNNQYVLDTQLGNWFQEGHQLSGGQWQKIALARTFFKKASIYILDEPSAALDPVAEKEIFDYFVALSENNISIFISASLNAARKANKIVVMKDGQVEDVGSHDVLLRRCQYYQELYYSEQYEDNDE

T3: NisTHis (NisT C-terminally labeled by a 6×His tag) (Lactococcus lactis) (UniProt Q03203)
T3 sequence: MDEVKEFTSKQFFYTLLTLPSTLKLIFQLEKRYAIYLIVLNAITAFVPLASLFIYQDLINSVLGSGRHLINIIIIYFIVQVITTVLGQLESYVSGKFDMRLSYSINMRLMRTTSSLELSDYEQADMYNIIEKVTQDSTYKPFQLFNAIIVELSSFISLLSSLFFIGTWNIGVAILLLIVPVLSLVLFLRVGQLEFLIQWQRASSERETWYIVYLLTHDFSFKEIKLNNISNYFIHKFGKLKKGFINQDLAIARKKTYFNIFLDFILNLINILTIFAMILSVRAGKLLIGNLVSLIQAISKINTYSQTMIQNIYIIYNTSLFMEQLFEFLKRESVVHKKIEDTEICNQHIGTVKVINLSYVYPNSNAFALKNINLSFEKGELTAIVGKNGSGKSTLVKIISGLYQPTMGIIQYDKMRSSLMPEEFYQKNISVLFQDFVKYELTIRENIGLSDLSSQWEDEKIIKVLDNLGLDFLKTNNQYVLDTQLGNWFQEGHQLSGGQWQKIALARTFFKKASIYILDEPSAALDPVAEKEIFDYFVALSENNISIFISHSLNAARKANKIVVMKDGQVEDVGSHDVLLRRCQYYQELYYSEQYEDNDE

T4: NisB_(flag) (NisB C-terminally labeled by a Flag tag) (Lactococcus lactis) (UniProt P20103)
T4 sequence: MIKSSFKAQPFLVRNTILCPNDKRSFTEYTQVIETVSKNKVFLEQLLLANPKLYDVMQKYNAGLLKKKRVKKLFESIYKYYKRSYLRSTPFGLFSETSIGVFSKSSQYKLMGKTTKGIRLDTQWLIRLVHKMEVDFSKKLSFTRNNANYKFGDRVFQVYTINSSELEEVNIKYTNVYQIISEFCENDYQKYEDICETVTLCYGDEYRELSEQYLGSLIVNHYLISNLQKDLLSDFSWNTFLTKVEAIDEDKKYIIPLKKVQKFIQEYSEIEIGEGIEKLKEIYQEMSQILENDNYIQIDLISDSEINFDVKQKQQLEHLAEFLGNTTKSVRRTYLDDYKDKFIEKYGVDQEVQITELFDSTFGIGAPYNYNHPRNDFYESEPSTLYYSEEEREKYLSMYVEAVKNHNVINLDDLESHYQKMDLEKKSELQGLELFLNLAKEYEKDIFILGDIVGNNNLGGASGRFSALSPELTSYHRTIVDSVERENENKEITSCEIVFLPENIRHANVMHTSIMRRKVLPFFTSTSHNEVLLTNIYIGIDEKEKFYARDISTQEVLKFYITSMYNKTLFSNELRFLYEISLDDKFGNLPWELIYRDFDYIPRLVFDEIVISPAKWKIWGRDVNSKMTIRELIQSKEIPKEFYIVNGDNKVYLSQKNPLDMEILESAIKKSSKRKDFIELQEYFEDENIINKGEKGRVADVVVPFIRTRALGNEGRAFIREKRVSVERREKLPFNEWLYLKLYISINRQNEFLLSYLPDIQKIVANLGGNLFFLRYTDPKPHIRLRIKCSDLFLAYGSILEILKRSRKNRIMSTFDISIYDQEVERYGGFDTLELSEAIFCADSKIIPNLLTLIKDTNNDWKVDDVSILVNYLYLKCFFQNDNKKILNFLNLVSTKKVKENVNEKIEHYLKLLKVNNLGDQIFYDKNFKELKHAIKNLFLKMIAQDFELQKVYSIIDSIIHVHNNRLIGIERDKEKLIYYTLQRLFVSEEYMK


Legend:
[1] = biological target: T1, NisCHis (6×His-tagged NisC) (Lactococcus lactis); experiment: pull-down; NisCHis held on Ni-NTA agarose from the cell lysate of L. lactis NZ9000 coexpressing NisB_(flag), NisB^G_(flag) or NisB^E_(flag), without NisA; SDS-PAGE and Western blotting with anti-Flag
[2] = biological target: T2, NisT^H551AHis (mutation H551A introduced in NisTHis) (Lactococcus lactis); experiment: pull-down; NisTHis or NisT^H551AHis held on Ni-NTA agarose from DDM-solubilised cytoplasmic membrane of L. lactis NZ9000 coexpressing NisA, NisB_(flag) and NisC; 50 mM Tris-HCl, 300 mM NaCl, 0.1% DDM, pH 7.4, 4°C; elutions blotted with anti-Flag and anti-NisC
[3] = biological target: T3, NisTHis (NisT C-terminally labeled by a 6×His tag) (Lactococcus lactis); experiment: as above
[4] = biological target: T3, NisTHis (NisT C-terminally labeled by a 6×His tag) (Lactococcus lactis); experiment: pull-down; NisTHis held on Ni-NTA agarose from DDM-solubilised membrane; expression combinations: NisB_(flag) and NisC without NisA, NisB_(flag) alone, NisC alone; SDS-PAGE and Western blotting
[5] = biological target: T4, NisB_(flag) (NisB C-terminally labeled by a Flag tag) (Lactococcus lactis); experiment: SEC; elution of the Ni-NTA purification of NisA_(GS-His) run on ENrich SEC 650 10/300 at 4°C; fractions analysed by SDS-PAGE and Western blotting; sizes estimated from a calibration curve

binding [1]	binding [2]	binding [3]	binding [4]	binding [5]	Binder
binds	binds weakly	binds weakly	binds		NisB_(flag) (NisB C-terminally labeled by a Flag tag) (enzyme, UniProt P20103 1-993) MIKSSFKAQPFLVRNTILCPNDKRSFTEYTQVIETVSKNKVFLEQLLLANPKLYDVMQKYNAGLLKKKRVKKLFESIYKYYKRSYLRSTPFGLFSETSIGVFSKSSQYKLMGKTTKGIRLDTQWLIRLVHKMEVDFSKKLSFTRNNANYKFGDRVFQVYTINSSELEEVNIKYTNVYQIISEFCENDYQKYEDICETVTLCYGDEYRELSEQYLGSLIVNHYLISNLQKDLLSDFSWNTFLTKVEAIDEDKKYIIPLKKVQKFIQEYSEIEIGEGIEKLKEIYQEMSQILENDNYIQIDLISDSEINFDVKQKQQLEHLAEFLGNTTKSVRRTYLDDYKDKFIEKYGVDQEVQITELFDSTFGIGAPYNYNHPRNDFYESEPSTLYYSEEEREKYLSMYVEAVKNHNVINLDDLESHYQKMDLEKKSELQGLELFLNLAKEYEKDIFILGDIVGNNNLGGASGRFSALSPELTSYHRTIVDSVERENENKEITSCEIVFLPENIRHANVMHTSIMRRKVLPFFTSTSHNEVLLTNIYIGIDEKEKFYARDISTQEVLKFYITSMYNKTLFSNELRFLYEISLDDKFGNLPWELIYRDFDYIPRLVFDEIVISPAKWKIWGRDVNSKMTIRELIQSKEIPKEFYIVNGDNKVYLSQKNPLDMEILESAIKKSSKRKDFIELQEYFEDENIINKGEKGRVADVVVPFIRTRALGNEGRAFIREKRVSVERREKLPFNEWLYLKLYISINRQNEFLLSYLPDIQKIVANLGGNLFFLRYTDPKPHIRLRIKCSDLFLAYGSILEILKRSRKNRIMSTFDISIYDQEVERYGGFDTLELSEAIFCADSKIIPNLLTLIKDTNNDWKVDDVSILVNYLYLKCFFQNDNKKILNFLNLVSTKKVKENVNEKIEHYLKLLKVNNLGDQIFYDKNFKELKHAIKNLFLKMIAQDFELQKVYSIIDSIIHVHNNRLIGIERDKEKLIYYTLQRLFVSEEYMK
	binds weakly	binds weakly	binds	binds	NisC (tag-free) (enzyme, UniProt Q03202 1-418) MRIMMNKKNIKRNVEKIIAQWDERTRKNKENFDFGELTLSTGLPGIILMLAELKNKDNSKIYQKKIDNYIEYIVSKLSTYGLLTGSLYSGAAGIALSILHLREDDEKYKNLLDSLNRYIEYFVREKIEGFNLENITPPDYDVIEGLSGILSYLLLINDEQYDDLKILIINFLSNLTKENNGLISLYIKSENQMSQSESEMYPLGCLNMGLAHGLAGVGCILAYAHIKGYSNEASLSALQKIIFIYEKFELERKKQFLWKDGLVADELKKEKVIREASFIRDAWCYGGPGISLLYLYGGLALDNDYFVDKAEKILESAMQRKLGIDSYMICHGYSGLIEICSLFKRLLNTKKFDSYMEEFNVNSEQILEEYGDESGTGFLEGISGCILVLSKFEYSINFTYWRQALLLFDDFLKGGKRK
